Results on 1 sequence are retold here after PMC9276969.

The exact form of at least one protein or probe is not confirmed. Where a protein sequence is shown, tags need not be part of it.

The data set has as its target T1, LvIRF (Litopenaeus vannamei) (UniProt A0A0R6M5F1).
T1 sequence (looked up): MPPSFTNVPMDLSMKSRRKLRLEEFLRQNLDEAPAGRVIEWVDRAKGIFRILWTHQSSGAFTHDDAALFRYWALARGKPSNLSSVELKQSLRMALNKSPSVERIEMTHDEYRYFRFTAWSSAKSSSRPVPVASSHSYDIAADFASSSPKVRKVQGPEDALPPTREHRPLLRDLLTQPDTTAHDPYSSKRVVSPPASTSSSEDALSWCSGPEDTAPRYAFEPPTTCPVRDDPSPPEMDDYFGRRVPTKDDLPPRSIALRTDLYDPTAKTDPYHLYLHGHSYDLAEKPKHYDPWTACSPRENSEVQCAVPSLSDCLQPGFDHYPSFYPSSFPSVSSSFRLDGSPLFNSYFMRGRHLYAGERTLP
Description: EMSA. The following applies: 10 ug protein, 20 fmol probe, shift gradually eliminated by 200x and 400x unlabeled probe, LightShift Chemiluminescent EMSA Kit, 5% native PAGE, pH and temperature not stated, recombinant protein, residues 1-362, label: 5' biotin on printed strand. Background: In EMSA bound probe runs differently from free probe, usually more slowly.

In the case of “ATAATGGTGATGATAGGTTGCTGGGGGAAAGGGGAAGGATCAAGGAGCAAGCGGAAGTGT (double strand) [PTPN6 probe]”, the binding result is on record as “binds”.
